Some of the results follow.
Compound: C1=CC2=C(C=CC(=C2)/C=C\3/C(=O)NC(=NCC4=CC=CS4)S3)N=C1
Experiment: log2 fold change, soluble protein after heating vs DMSO (PISA); higher = thermal stabilisation; K562 cells, 10 uM, 30 min; active = over 0.2 and 3.5 SD of the protein, either way, in both replicates (recomputed)
Outline: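 K562 cells (2×10^6 cells/mL) were treated with 10 μM compound for 30 min, and aliquots were heated for 3 min over 48°C-58°C. Pooled aliquots were extracted in PBS with 0.5% NP-40 at 4°C, and the supernatant after 21,000xg for 90 min was measured by TMTpro 16plex LC-MS/MS with channel sums equalised. Reported thermal stability, relative to control samples and from duplicates, is a log2 fold change.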

Protein sequences, listed by entry. Tags and fused reporters are not part of them. Lines headed by an entry give the natural chain unless they say otherwise; changes in a name come on top.
UniProt Q96EU6: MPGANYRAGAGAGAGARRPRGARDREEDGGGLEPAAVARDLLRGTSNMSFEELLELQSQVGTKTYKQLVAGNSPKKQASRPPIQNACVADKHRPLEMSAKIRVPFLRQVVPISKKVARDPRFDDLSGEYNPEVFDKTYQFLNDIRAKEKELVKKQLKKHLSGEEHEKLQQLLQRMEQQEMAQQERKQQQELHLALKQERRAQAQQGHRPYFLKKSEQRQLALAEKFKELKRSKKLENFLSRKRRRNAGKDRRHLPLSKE
UniProt O14521: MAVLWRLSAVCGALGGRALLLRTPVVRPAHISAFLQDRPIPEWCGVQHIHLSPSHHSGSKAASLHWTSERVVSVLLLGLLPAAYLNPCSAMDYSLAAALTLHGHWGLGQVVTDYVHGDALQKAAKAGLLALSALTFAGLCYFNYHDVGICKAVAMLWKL
UniProt Q8WXD2: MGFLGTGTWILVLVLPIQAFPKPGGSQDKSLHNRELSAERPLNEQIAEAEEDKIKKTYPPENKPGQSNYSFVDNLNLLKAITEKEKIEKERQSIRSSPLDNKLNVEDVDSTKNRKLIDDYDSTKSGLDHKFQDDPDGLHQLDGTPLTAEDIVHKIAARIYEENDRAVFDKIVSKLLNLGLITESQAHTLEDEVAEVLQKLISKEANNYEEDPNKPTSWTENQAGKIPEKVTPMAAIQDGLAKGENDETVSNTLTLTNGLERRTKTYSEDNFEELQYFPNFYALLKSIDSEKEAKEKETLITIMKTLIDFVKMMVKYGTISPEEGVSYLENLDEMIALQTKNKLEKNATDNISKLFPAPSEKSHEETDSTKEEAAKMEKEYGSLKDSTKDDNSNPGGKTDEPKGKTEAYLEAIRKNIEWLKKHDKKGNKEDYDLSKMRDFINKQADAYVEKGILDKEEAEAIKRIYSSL
UniProt Q8IZE3: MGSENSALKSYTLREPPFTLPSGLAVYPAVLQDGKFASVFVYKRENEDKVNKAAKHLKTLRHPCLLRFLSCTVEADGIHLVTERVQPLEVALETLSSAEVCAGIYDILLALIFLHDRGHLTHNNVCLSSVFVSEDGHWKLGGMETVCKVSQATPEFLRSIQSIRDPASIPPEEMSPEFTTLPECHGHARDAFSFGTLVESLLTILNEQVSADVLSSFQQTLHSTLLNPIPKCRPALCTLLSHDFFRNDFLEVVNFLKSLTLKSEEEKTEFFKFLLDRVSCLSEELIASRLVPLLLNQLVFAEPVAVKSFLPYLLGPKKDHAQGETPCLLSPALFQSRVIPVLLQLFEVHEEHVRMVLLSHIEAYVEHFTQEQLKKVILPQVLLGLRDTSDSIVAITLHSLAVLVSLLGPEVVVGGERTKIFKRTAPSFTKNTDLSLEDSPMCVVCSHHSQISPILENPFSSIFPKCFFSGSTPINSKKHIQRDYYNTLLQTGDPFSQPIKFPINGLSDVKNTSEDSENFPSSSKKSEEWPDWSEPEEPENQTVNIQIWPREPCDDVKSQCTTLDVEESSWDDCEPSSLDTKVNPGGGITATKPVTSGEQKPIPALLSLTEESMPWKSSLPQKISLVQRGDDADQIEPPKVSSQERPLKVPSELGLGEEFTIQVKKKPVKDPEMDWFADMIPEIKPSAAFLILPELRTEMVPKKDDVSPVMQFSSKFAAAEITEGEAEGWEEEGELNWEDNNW
UniProt O15127: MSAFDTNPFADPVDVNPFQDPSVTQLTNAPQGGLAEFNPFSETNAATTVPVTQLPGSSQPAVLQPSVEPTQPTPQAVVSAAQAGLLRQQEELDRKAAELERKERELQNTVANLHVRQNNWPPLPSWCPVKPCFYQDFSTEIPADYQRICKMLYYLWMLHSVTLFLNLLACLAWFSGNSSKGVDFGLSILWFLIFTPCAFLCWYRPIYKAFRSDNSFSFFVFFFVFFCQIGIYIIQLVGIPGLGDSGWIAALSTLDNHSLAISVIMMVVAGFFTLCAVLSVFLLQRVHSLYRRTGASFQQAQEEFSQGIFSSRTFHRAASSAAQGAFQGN
UniProt Q9NRG7: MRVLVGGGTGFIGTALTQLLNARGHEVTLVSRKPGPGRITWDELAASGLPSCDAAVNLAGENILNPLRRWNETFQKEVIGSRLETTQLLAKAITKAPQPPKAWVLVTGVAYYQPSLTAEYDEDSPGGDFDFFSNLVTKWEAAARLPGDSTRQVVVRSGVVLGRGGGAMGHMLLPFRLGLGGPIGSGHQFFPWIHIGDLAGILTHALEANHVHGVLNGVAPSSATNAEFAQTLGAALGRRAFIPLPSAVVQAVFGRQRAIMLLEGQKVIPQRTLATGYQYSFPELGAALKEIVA
UniProt Q5VUM1: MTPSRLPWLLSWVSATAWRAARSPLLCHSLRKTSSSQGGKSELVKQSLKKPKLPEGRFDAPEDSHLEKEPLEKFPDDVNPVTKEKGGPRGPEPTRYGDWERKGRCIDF
UniProt Q7L4I2: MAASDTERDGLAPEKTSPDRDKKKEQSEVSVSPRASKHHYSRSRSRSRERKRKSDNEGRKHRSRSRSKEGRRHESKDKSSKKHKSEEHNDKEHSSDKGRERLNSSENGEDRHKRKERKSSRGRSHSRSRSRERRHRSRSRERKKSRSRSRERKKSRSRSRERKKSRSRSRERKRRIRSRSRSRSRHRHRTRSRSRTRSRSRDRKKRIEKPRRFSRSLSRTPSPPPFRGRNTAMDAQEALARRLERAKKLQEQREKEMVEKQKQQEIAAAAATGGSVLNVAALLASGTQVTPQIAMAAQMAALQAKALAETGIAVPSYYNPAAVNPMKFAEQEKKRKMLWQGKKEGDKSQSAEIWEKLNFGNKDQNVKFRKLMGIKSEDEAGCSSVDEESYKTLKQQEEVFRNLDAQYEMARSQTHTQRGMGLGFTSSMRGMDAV
UniProt O95969: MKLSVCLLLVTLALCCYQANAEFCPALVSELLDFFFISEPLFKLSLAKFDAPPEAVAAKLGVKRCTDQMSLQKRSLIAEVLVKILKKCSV
UniProt Q01196, whole entry, looked up: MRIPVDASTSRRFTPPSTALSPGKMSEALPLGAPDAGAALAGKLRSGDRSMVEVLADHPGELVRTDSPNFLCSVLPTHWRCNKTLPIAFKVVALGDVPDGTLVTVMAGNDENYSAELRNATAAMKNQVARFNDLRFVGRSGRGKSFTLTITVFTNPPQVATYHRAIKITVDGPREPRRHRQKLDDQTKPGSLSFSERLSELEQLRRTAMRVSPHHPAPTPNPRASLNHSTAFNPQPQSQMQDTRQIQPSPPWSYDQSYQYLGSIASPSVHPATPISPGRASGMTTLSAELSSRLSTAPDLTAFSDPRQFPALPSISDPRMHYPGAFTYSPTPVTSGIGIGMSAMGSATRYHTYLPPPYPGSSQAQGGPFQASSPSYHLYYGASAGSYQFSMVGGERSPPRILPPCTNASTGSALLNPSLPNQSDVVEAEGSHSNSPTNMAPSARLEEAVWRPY
UniProt Q96IW7: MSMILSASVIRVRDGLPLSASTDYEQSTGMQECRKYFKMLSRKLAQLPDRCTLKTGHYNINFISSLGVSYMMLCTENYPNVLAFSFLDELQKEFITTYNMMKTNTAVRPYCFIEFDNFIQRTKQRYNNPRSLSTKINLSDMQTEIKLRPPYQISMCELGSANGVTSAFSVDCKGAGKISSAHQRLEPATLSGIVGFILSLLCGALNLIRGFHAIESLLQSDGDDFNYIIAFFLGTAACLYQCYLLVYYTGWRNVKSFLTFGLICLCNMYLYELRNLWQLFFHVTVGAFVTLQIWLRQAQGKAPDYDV
UniProt P26447: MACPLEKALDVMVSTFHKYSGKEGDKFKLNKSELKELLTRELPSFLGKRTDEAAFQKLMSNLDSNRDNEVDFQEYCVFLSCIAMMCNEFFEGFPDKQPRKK
UniProt Q9NTJ5: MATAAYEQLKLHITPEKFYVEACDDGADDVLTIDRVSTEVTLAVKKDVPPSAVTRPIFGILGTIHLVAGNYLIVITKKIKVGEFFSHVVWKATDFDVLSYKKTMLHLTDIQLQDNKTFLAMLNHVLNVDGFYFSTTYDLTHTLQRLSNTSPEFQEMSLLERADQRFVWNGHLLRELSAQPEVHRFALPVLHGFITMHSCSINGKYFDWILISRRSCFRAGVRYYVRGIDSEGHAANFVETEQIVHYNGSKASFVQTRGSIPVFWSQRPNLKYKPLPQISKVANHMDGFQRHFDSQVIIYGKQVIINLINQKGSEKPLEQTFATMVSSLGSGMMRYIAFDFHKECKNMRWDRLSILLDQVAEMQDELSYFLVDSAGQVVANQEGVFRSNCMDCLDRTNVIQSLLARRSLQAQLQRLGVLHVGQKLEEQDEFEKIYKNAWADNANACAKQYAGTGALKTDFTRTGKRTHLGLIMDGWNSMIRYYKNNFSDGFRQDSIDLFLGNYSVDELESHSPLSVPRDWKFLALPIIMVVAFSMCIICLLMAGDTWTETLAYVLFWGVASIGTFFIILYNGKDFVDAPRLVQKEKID
UniProt Q96T23: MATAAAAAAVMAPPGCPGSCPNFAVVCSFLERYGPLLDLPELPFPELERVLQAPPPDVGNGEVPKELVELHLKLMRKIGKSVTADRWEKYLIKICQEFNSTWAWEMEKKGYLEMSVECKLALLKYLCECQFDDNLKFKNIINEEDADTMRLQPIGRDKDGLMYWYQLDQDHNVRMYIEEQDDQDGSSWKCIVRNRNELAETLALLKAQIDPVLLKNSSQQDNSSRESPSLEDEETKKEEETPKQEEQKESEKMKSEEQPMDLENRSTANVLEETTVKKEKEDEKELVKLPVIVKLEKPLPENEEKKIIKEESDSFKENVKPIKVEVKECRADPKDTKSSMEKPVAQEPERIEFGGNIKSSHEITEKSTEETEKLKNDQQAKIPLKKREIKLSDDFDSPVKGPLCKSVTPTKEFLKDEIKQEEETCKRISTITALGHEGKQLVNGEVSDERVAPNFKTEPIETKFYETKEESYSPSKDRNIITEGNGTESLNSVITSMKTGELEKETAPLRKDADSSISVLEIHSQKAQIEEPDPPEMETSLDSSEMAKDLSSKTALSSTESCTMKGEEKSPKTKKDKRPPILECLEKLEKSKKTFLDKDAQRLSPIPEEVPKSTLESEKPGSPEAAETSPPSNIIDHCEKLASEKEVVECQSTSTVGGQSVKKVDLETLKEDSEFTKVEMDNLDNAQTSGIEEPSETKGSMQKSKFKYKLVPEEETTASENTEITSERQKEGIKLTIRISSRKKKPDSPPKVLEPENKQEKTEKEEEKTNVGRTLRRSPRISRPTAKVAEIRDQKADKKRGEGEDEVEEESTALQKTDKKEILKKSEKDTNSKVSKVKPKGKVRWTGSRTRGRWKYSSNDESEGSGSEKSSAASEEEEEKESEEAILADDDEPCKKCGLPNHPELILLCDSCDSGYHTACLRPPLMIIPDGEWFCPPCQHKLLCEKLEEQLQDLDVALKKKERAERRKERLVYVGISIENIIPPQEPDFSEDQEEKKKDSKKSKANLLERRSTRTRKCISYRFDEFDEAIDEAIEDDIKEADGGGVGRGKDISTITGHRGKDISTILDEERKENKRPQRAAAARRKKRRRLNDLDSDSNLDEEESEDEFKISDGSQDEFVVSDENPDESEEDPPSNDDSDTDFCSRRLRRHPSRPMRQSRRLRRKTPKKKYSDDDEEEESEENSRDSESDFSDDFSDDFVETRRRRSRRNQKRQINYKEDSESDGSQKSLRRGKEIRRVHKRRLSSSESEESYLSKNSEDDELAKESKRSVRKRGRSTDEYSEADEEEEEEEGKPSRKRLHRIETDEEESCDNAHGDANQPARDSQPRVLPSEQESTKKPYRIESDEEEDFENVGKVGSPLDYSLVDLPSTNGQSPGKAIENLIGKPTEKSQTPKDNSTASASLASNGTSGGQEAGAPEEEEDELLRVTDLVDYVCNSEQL
UniProt O75446: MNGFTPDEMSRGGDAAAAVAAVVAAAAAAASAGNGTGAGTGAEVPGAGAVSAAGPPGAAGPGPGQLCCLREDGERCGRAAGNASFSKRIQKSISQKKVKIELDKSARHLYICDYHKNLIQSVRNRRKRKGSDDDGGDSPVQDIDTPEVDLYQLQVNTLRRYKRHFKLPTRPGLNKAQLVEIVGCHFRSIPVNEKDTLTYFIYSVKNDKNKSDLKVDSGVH
UniProt P29034: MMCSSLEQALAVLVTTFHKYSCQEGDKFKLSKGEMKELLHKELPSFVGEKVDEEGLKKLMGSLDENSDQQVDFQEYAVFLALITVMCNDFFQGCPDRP
UniProt P57060: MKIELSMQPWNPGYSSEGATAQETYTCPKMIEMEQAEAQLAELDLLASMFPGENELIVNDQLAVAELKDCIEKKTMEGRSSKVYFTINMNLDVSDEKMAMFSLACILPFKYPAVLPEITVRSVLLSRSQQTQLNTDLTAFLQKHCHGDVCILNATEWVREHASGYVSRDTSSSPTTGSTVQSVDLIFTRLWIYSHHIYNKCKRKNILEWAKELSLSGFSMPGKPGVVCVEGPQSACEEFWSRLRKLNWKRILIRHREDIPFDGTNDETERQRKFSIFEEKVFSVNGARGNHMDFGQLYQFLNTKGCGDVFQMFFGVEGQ

Row | Target | log2 fold change
1 | RRP36 (UniProt Q96EU6) | inactive: -0.133
2 | SCAMP2 (UniProt H3BUB6) | inactive: 0.372
3 | SDHD (UniProt O14521) | inactive: -0.049
4 | SCG3 (UniProt Q8WXD2) | inactive: 0.09
5 | SCYL3 isoform 2 (UniProt Q8IZE3) | inactive: 0.068
6 | SCAMP2 (UniProt O15127) | inactive: -0.154
7 | SDHB, A0A087WXX8 | inactive: 0.149
8 | SDR39U1 (UniProt Q9NRG7) | inactive: 1.03
9 | RTF2 (UniProt Q9BY42) | inactive: -0.049
10 | SDCCAG8 (UniProt Q86SQ7) | inactive: 0.108
11 | SDHAF4 (UniProt Q5VUM1) | inactive: 0.118
12 | RSRC2 (UniProt Q7L4I2) | inactive: -0.05
13 | SCAI isoform 2 (UniProt Q8N9R8) | inactive: -0.003
14 | SCGB1D2 (UniProt O95969) | inactive: -0.092
15 | RUNX1 isoform 8 (UniProt Q01196) | inactive: -0.001
16 | SEC22A (UniProt Q96IW7) | inactive: 0.083
17 | S100A4 (UniProt P26447) | inactive: 0.167
18 | SACM1L (UniProt Q9NTJ5) | inactive: 0.039
19 | RSF1 (UniProt Q96T23) | inactive: 0.039
20 | SAP30 (UniProt O75446) | inactive: 0.018
21 | SDHB, A0A087WWT1 | inactive: 0.257
22 | S100A2 (UniProt P29034) | inactive: 0.19
23 | RWDD2B (UniProt P57060) | inactive: 0.135

A few values from the results shown.
Value for SACM1L (UniProt Q9NTJ5) under log2 fold change: inactive: 0.039
Value for RSF1 (UniProt Q96T23) under log2 fold change: inactive: 0.039

From the supplement of paper PMC10849652
